This experiment concerns Salmonella enterica serovar Typhimurium SL1344. Nature of the experiment: bacterial growth OD600 after 18 h with compound and polymyxin B; higher = more bacterial growth (less inhibition). The note with it: 50 µM, Mueller-Hinton broth.

This is one part of the list. These are raw signals, not scaled to a control.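 First-pass screen: polymyxin B was added at a level that permeabilizes the Salmonella outer membrane while sparing the inner membrane. DMSO wells, with and without polymyxin B, defined maximum growth. Because plates differed from one another, each plate's data were ranked separately and the compounds with the lowest OD600 were carried forward as hits.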

Consider `Cc1nc(CN2CCCC(CO)(Cc3cccc(Cl)c3)C2)c[nH]1` (stereo unspecified), for which the “bacterial growth OD600” value (polymyxin B 0.75 µg/mL) was 0.861.

In the case of `COc1cc(CC2(CCC(=O)NCC3(c4ccccc4)CCOCC3)CCC(=O)N2)ccc1F` (stereo unspecified), the “bacterial growth OD600” value (polymyxin B 0.75 µg/mL) is 0.933.

Turning to `Cc1cccc(-c2cnc(C)nc2C2CCCN(C(=O)C34CC5CC(CC(C5)C3)C4)C2)c1` (stereo unspecified), where the note is “polymyxin B 0.75 µg/mL”, the “bacterial growth OD600” value stood at 0.002.

With `O=C(Nc1ccnn1C1CCN(C(=O)C#Cc2ccccc2)CC1)C1CCOC1` (stereo unspecified), the “bacterial growth OD600” value (polymyxin B 1 µg/mL) stood at 1.06.

Regarding `COC(=O)C1CCCCN1C(=O)c1c(OC)cc(=O)n2c1CCN(Cc1ccc(Cl)cc1)CC2` (stereo unspecified), under “polymyxin B 0.75 µg/mL”, the “bacterial growth OD600” value was found to be 0.803.

Turning to `COc1cc(CNC2CCCc3c2cnn3-c2ccc(C)c(C)c2)cc2c1OCO2` (stereo unspecified), the “bacterial growth OD600” value (polymyxin B 0.75 µg/mL) came to 0.333.

`C=C(C)CN(CC)C(=O)CC1C(=O)NCCN1Cc1ccccc1` (stereo unspecified): the “bacterial growth OD600” value (polymyxin B 1 µg/mL) came out at 0.962.

For `COCC(=O)N(C)C(Cc1ccc(F)cc1)C1CCN(C(=O)CCc2ccccc2OC)CC1` (stereo unspecified), the “bacterial growth OD600” value (polymyxin B 0.75 µg/mL) stood at 0.758.

With `COCCNC(=O)c1ccc(OC2CCN(Cc3cccc(C)n3)CC2)c(Cl)c1`, where the note is “polymyxin B 1 µg/mL”, the “bacterial growth OD600” value stood at 0.909.

In the case of `CN(Cc1ccsc1)C(=O)CCC1(Cc2ccc(Cl)cc2)CCC(=O)N1` (stereo unspecified), the “bacterial growth OD600” value (polymyxin B 0.75 µg/mL) came out at 0.948.

Turning to `Cc1c(F)cccc1CN1CCC(C2CCN(Cc3cccnc3)CC2)C1` (stereo unspecified), the “bacterial growth OD600” value (polymyxin B 0.75 µg/mL) came out at 0.776.

As to `Cc1ccc(CNC(=O)c2cc(Cn3cnc4ccccc43)on2)s1`, the “bacterial growth OD600” value (polymyxin B 0.75 µg/mL) was determined as 0.97.

For the molecule `Cc1cc(CN2CCCC(CNC(=O)c3ccc(-c4ccccc4)cc3)C2)[nH]n1` (stereo unspecified), for the setting “polymyxin B 1 µg/mL”, the “bacterial growth OD600” value came out at 0.848.

With `Cc1ccc(OCc2cc(C(=O)N(C)CCC3CCCCO3)no2)cn1` (stereo unspecified), for the setting “polymyxin B 1 µg/mL”, the “bacterial growth OD600” value amounted to 0.921.

As to `COCCn1cnc2cc(NC(=O)C3CCCCC3)cc(C(=O)N3CCC(C)CC3)c21`, the “bacterial growth OD600” value (polymyxin B 0.75 µg/mL) is 0.838.

On to `CSc1ccc(CN2CCC(CO)(CCOc3ccccc3)CC2)cc1`, for which, for the setting “polymyxin B 1 µg/mL”, the “bacterial growth OD600” value amounted to 0.899.

Regarding `CCc1cc(CNC(=O)Cn2cc(NC(=O)CCOc3ccccc3)cn2)on1`, the “bacterial growth OD600” value (polymyxin B 0.75 µg/mL) was 0.839.

For `c1cnn(CC2CCN(c3ccc(-c4nc(C5CC5)no4)cn3)CC2)c1`, the “bacterial growth OD600” value (polymyxin B 1 µg/mL) turned out to be 1.1.

For `O=C(c1ccc(NCCO)nc1)N1CCCC(c2ccccc2)CC1` (stereo unspecified), for the setting “polymyxin B 1 µg/mL”, the “bacterial growth OD600” value is 1.11.

For the molecule `COCCCN1C(=O)CC(CC(=O)NCc2cc(F)cc(C(F)(F)F)c2)(c2ccccc2C)C1=O` (stereo unspecified), under “polymyxin B 0.75 µg/mL”, the “bacterial growth OD600” value is 0.009.

Consider `CCC1CN(Cc2ccco2)Cc2cc(OC)ccc2O1` (stereo unspecified), for which the “bacterial growth OD600” value (polymyxin B 0.75 µg/mL) turned out to be 0.803.

For `CCN1CCN(c2ccc(C(=O)NCCCc3ccc(OC)cc3)cn2)CC1`, the “bacterial growth OD600” value (polymyxin B 0.75 µg/mL) amounted to 0.791.

As to `O=C(Nc1cnn(-c2ccc(C(=O)N3CCN(c4ccccc4F)CC3)cc2)c1)C1CCOC1` (stereo unspecified), under “polymyxin B 0.75 µg/mL”, the “bacterial growth OD600” value worked out at 0.842.

Take `O=C1N(CC2CCC2)CCCC1(O)CN1CCOc2ccc(Cl)cc2C1` (stereo unspecified): the “bacterial growth OD600” value (polymyxin B 1 µg/mL) worked out at 0.747.

`COCC(=O)N1CCC(n2c(C3CCCO3)nc3cc(C(F)(F)F)ccc32)CC1` (stereo unspecified): the “bacterial growth OD600” value (polymyxin B 0.75 µg/mL) worked out at 0.82.

As to `O=C(c1ccc(Cl)cc1OC1CCN(Cc2ccco2)CC1)N1CCCCC1`, the “bacterial growth OD600” value (polymyxin B 1 µg/mL) worked out at 0.929.

Turning to `COc1ccc2c(C)nc(N3CCC(C(=O)NCC4CC5C=CC4C54CC4)CC3)nc2c1` (stereo unspecified), the “bacterial growth OD600” value (polymyxin B 0.75 µg/mL) worked out at 0.618.

In the case of `COCC(=O)Nc1cc(C(=O)N(C)CC2Cc3ccccc3O2)cc2ncn(CCc3ccccc3)c12` (stereo unspecified), the “bacterial growth OD600” value (polymyxin B 0.75 µg/mL) amounted to 0.917.

Take `CSc1ccccc1C(=O)NCc1nc(NCCCc2ccccc2)c2ccccc2n1`: the “bacterial growth OD600” value (polymyxin B 0.75 µg/mL) turned out to be 0.863.

Consider `COc1cccc(-c2nc3ccc(C(=O)N(C)CC(O)c4ccccc4)cc3o2)c1` (stereo unspecified), for which the “bacterial growth OD600” value (polymyxin B 1 µg/mL) came out at 0.749.

Consider `O=C(c1ccco1)N1CCCN(c2nc3nonc3nc2N2CCCCCC2)CC1`, for which the “bacterial growth OD600” value (polymyxin B 1 µg/mL) is 0.877.
